The record followed here is article PMC2908686.

Holding throughout (assay): co-IP; same FLAG-IPs of the TPR proteins from HEK-293 lysates; co-precipitated endogenous Hsp90 and Hsp70 by Coomassie staining (Hsp70 background on the resin subtracted), p23 by immunoblot; normalized to the precipitated TPR cofactor; experiments with different steroid receptors pooled
Assay [1] concerns the target T1, FK506 binding protein 51 (FKBP51), C-terminal FLAG fusion (UniProt Q13451).
T1 sequence: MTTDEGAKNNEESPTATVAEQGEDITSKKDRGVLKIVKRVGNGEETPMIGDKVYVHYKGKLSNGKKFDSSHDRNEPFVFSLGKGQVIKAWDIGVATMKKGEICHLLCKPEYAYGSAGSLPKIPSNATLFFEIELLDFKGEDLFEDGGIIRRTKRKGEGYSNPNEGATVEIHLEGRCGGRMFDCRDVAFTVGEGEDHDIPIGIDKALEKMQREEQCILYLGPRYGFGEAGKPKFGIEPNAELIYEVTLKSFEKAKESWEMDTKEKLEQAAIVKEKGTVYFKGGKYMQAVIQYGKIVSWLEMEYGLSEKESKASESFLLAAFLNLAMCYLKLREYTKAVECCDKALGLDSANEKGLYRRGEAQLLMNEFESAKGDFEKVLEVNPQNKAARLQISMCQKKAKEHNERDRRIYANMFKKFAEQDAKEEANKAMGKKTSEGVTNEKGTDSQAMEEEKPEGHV

Assay [2] addresses T2, FK506 binding protein 52 (FKBP52), C-terminal FLAG fusion (UniProt Q02790).
T2 sequence: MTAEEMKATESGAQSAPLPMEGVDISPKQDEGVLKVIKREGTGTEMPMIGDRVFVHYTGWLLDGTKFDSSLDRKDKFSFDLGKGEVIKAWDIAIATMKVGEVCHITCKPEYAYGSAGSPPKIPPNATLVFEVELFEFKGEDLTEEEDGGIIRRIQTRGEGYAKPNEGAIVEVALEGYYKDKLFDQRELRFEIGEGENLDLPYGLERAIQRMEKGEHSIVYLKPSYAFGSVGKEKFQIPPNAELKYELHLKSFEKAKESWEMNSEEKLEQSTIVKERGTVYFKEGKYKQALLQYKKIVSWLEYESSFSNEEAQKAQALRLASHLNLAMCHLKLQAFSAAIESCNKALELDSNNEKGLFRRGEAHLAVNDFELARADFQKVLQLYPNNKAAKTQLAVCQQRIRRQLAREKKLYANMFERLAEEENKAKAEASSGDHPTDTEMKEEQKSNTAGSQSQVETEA

Assay [3] has as its target T3, hepatitis virus B X-associated protein 2 (XAP2), C-terminal FLAG fusion (UniProt O00170).
T3 sequence: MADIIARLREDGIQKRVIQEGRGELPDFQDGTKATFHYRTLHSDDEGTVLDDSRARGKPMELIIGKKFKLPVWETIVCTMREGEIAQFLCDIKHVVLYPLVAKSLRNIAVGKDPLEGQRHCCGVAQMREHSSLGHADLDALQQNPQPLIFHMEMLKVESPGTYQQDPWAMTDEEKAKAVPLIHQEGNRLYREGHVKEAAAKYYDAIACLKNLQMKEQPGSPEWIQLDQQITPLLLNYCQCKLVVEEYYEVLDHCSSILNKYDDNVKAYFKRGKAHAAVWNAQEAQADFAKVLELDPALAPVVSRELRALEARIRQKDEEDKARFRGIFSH

These are yes or no findings as the source states them, for the method shown. Binding seen in cells or lysates may run through a third protein. For part of these data: A result given as binding can be weak or reduced; the word gives no strength. Tags and fused reporters may be left off the sequences shown.

Take “Hsp70, endogenous (human (endogenous in HEK-293))”: the values for the binding result in assay [1], in assay [2] and in assay [3] were “binds weakly”, “no binding” and “no binding”, respectively.
